In paper PMC10952133, “Phytocystatin 6 is a context‐dependent, tight‐binding inhibitor of Arabidopsis thaliana legumain isoform β” (The Plant Journal, 2023):
No constants are given. Whether binding was seen depends on the method and setting.

Sequences of proteins named here, by UniProt entry; tags and fusion partners are left off. A change or cut given only in a name is not applied to a line headed by its entry.
UniProt Q39119: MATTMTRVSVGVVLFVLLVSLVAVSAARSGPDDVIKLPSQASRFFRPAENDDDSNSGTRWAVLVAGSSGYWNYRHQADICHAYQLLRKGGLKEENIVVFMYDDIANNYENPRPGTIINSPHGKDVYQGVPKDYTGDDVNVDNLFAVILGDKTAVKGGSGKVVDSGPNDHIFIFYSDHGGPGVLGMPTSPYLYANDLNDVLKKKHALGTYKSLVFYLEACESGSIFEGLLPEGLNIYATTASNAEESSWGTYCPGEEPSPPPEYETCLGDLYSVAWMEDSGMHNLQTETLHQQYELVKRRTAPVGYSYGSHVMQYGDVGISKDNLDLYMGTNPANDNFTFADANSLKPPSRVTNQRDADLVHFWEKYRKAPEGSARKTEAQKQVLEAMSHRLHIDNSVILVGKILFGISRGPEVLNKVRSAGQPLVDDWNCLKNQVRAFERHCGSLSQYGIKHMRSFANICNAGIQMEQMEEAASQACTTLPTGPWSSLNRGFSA

Target: Arabidopsis thaliana legumain isoform γ, activated (AtLEGγ) (Arabidopsis thaliana) (UniProt Q39119)
Assay: condition: inhibitor up to 15-fold the enzyme concentration (50 nM enzyme); enzyme inhibition kinetics (Ki, Morrison equation); turnover of 50 μM Z-Ala-Ala-Asn-AMC by 50 nM legumain, 25°C, 20 mM citric acid pH 5.5, 100 mM NaCl, 0.02% Tween 20, 2 mM DTT; inhibitor in 1:2 serial dilutions from 15-fold the enzyme concentration, quadruplicates; both purified

binding: no binding
B1: N-terminal domain of AtCYT6 (AtCYT6-NTD, A35-D127) (domain or fragment, Arabidopsis thaliana, UniProt Q8H0X6-1 35-127, looked up)
chain: ALVGGVGDVPANQNSGEVESLARFAVDEHNKKENALLEFARVVKAKEQVVAGTLHHLTLEILEAGQKKLYEAKVWVKPWLNFKELQEFKPASD
notes: Arabidopsis thaliana cystatin 6, N-terminal cystatin domain, residues A35-D127; Cloned into pET-28; source: E. coli BL21(DE3), purified (Ni-NTA, SEC)
